Paper doi:10.1101/2024.06.04.597356

System: GST-TaCSP-H1 (D sub-genome + = AetHap1) (Triticum aestivum)
Experiment: molecular beacon unfolding
Details: 1 mM Mg2+, melting read-out, indirect binding

## AGGGTTCTTTGTGGTGTTTTTATCTGTGCTTCCCTATGCACCGCCGACGACAGTCGCTAACCTCTCGCTAAGAACCCT [78-nt molecular beacon]
  binding result: binds

The exact form of at least one protein or probe is not confirmed.
